Some of the results follow. Single values are uncertain, as repeats are few or missing.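 The apoptosis fraction was the count of cleaved-PARP antibody-stained nuclei relative to all DNA-stained nuclei, imaged in 1,536-well plates. Screening doses were set so most cells survived, and baseline and induced cleaved-PARP levels vary greatly across cell lines.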
Key:
Test in all cases: cleaved PARP positive nuclei fraction relative to DMSO control; melanoma cells; higher = more apoptosis
Conditions in all cases: library dose: low library concentration; 72 h
501Mel = tested on: 501Mel
A101D = tested on: A101D
A2058 = tested on: A2058
A375 = tested on: A375
C32 = tested on: C32
CBRC008 = tested on: CBRC008 (line from a melanoma biopsy)
CBRC013 = tested on: CBRC013 (line from a melanoma biopsy)
CBRC014 = tested on: CBRC014 (line from a melanoma biopsy)
CBRC016 = tested on: CBRC016 (line from a melanoma biopsy)
CBRC017 = tested on: CBRC017 (line from a melanoma biopsy)
COLO792 = tested on: COLO792
COLO800 = tested on: COLO800
COLO829 = tested on: COLO829
G361 = tested on: G361
IPC-298 = tested on: IPC-298
IST-MEL1 = tested on: IST-MEL1
LB2518-MEL = tested on: LB2518-MEL
LOXIMVI = tested on: LOXIMVI
MEL-HO = tested on: MEL-HO

| SMILES | cleaved PARP positive nuclei fraction (501Mel) | cleaved PARP positive nuclei fraction (A101D) | cleaved PARP positive nuclei fraction (A2058) | cleaved PARP positive nuclei fraction (A375) | cleaved PARP positive nuclei fraction (C32) | cleaved PARP positive nuclei fraction (CBRC008) | cleaved PARP positive nuclei fraction (CBRC013) | cleaved PARP positive nuclei fraction (CBRC014) | cleaved PARP positive nuclei fraction (CBRC016) | cleaved PARP positive nuclei fraction (CBRC017) | cleaved PARP positive nuclei fraction (COLO792) | cleaved PARP positive nuclei fraction (COLO800) | cleaved PARP positive nuclei fraction (COLO829) | cleaved PARP positive nuclei fraction (G361) | cleaved PARP positive nuclei fraction (IPC-298) | cleaved PARP positive nuclei fraction (IST-MEL1) | cleaved PARP positive nuclei fraction (LB2518-MEL) | cleaved PARP positive nuclei fraction (LOXIMVI) | cleaved PARP positive nuclei fraction (MEL-HO) |
| --- | --- | --- | --- | --- | --- | --- | --- | --- | --- | --- | --- | --- | --- | --- | --- | --- | --- | --- | --- |
| Cc1cc(Nc2cc(N3CCN(C)CC3)nc(/C=C/c3ccccc3)n2)n[nH]1 + O=C(CCCCCCC(=O)Nc1ccccc1)NO [vorinostat] (first compound 0.04 µM, partner dose 0.08 µM) | 90.3% | 231% | 123% | 130% | 64.6% | 46.1% | 81.8% | 74.4% | 78% | 108% | 127% | 108% | 68.9% | 158% | 98.5% | 132% | 88.3% | 105% | 73% |
| CC(C)C[C@H](NC(=O)[C@H](Cc1ccccc1)NC(=O)c1cnccn1)B(O)O [Bortezomib] + NCC(=O)Nc1ccc(-n2nc(C(F)(F)F)cc2-c2ccc3c(ccc4ccccc43)c2)cc1 [OSU03012] (first compound 0.001 µM, partner dose 1 µM) | 642% | 253% | 31.3% | 2520% | 149% | 700% | 179% | 145% | 148% | 183% | 162% | 99.4% | 102% | 810% | 119% | 126% | 126% | 167% | 105% |
| O=C(O)[C@@H]1[O][Sb](=[O])([O][Sb]2(=[O])[O][C@H]([C@H](O)CO)[C@H](O)[C@H](C(=O)O)[O]2)[O][C@H]([C@H](O)CO)[C@@H]1O (some centres not stated) [stibogluconate] + Cc1ccc(NC(=O)c2cccc(N(C)C)c2)cc1NC(=O)c1ccc(O)cc1 [ZM336372] (first compound 2 µM, partner dose 2 µM) | 82.1% | 44.9% | 383% | 106% | 146% | 119% | 85.4% | 136% | 104% | 155% | 141% | 39.4% | 117% | 99% | 114% | 68.8% | 102% | 62.1% | 75.9% |
| CNC(=O)c1cc(Oc2ccc(NC(=O)Nc3ccc(Cl)c(C(F)(F)F)c3)cc2)ccn1 [sorafenib] + CO[C@@H]1[C@H](N(C)C(=O)c2ccccc2)C[C@H]2O[C@]1(C)n1c3ccccc3c3c4c(c5c6ccccc6n2c5c31)C(=O)NC4 [Midostaurin] (first compound 0.4 µM, partner dose 0.08 µM) | 68.5% | 131% | 101% | 103% | 92.9% | 192% | 160% | 398% | 97.9% | 95.9% | 68.7% | 162% | 89.4% | 200% | 103% | 69.6% | 126% | 272% | 88.4% |
| CCCS(=O)(=O)Nc1ccc(F)c(C(=O)c2c[nH]c3ncc(Cl)cc23)c1F + NCC(=O)Nc1ccc(-n2nc(C(F)(F)F)cc2-c2ccc3c(ccc4ccccc43)c2)cc1 [OSU03012] (first compound 0.08 µM, partner dose 1 µM) | 1580% | 40.8% | 28.2% | 10000% | 45% | 93.8% | 213% | 96.4% | 180% | 91.1% | 73.5% | 80.7% | 60.6% | 101% | 73.7% | 111% | 42.3% | 103% | 35.8% |
| Nc1ccn([C@@H]2O[C@H](CO)[C@@H](O)C2(F)F)c(=O)n1 [gemcitabine] + NCC(=O)Nc1ccc(-n2nc(C(F)(F)F)cc2-c2ccc3c(ccc4ccccc43)c2)cc1 [OSU03012] (first compound 0.0004 µM, partner dose 1 µM) | 141% | 92.1% | 199% | 4040% | 70.7% | 135% | 113% | 114% | 221% | 100% | 133% | 170% | 136% | 116% | 247% | 88% | 34.6% | 89.4% | 215% |
| Cn1c(=O)n(-c2ccc(C(C)(C)C#N)cc2)c2c3cc(-c4cnc5ccccc5c4)ccc3ncc21 + NC(=O)Nc1cc(-c2cccc(F)c2)sc1C(=O)N[C@H]1CCCNC1 [AZD7762] (first compound 0.004 µM, partner dose 0.02 µM) | 168% | 107% | 27.1% | 1340% | 289% | 118% | 90.3% | 102% | 27.8% | 96.8% | 94.4% | 149% | 88% | 84.3% | 90.3% | 85.8% | 83.3% | 168% | 68.7% |
| O=C(O)[C@@H]1[O][Sb](=[O])([O][Sb]2(=[O])[O][C@H]([C@H](O)CO)[C@H](O)[C@H](C(=O)O)[O]2)[O][C@H]([C@H](O)CO)[C@@H]1O (some centres not stated) [stibogluconate] + Cc1cc(N2CCOCC2)cc2[nH]c(-c3c(NC[C@@H](O)c4cccc(Cl)c4)cc[nH]c3=O)nc12 [BMS536924] (first compound 2 µM, partner dose 0.2 µM) | 96.6% | 78.4% | 81.3% | 55.4% | 29% | 129% | 79.3% | 69.3% | 52.6% | 62.6% | 67.6% | 120% | 38% | 197% | 87.5% | 93.3% | 46.6% | 70.9% | 66.5% |

Copied from the list:
For cleaved PARP positive nuclei fraction (A101D), Nc1ccn([C@@H]2O[C@H](CO)[C@@H](O)C2(F)F)c(=O)n1 [gemcitabine] + NCC(=O)Nc1ccc(-n2nc(C(F)(F)F)cc2-c2ccc3c(ccc4ccccc43)c2)cc1 [OSU03012] (first compound 0.0004 µM, partner dose 1 µM) reads 92.1%
For cleaved PARP positive nuclei fraction (A101D), Cn1c(=O)n(-c2ccc(C(C)(C)C#N)cc2)c2c3cc(-c4cnc5ccccc5c4)ccc3ncc21 + NC(=O)Nc1cc(-c2cccc(F)c2)sc1C(=O)N[C@H]1CCCNC1 [AZD7762] (first compound 0.004 µM, partner dose 0.02 µM) reads 107%

Source: the supplement of paper PMC4604168 (melanoma cell lines)
